Measurements as given in publication PMC12751603 (Journal of Experimental & Clinical Cancer Research : CR, 2025).
Results are given in words; binding and its absence hold for the method and conditions named. For part of these data: Binding seen in cells or lysates may run through a third protein. Some binding calls cover weakened binding; strength is not graded here. For part of these data: Where a sequence is shown, tags or fusion partners need not be part of it. Blank lines part the entries; values can stand above or below the molecule they belong to.

By UniProt entry, the sequences of proteins in these tests, tags left out. Residues count along the entry.
UniProt P08069, residues 31-1367: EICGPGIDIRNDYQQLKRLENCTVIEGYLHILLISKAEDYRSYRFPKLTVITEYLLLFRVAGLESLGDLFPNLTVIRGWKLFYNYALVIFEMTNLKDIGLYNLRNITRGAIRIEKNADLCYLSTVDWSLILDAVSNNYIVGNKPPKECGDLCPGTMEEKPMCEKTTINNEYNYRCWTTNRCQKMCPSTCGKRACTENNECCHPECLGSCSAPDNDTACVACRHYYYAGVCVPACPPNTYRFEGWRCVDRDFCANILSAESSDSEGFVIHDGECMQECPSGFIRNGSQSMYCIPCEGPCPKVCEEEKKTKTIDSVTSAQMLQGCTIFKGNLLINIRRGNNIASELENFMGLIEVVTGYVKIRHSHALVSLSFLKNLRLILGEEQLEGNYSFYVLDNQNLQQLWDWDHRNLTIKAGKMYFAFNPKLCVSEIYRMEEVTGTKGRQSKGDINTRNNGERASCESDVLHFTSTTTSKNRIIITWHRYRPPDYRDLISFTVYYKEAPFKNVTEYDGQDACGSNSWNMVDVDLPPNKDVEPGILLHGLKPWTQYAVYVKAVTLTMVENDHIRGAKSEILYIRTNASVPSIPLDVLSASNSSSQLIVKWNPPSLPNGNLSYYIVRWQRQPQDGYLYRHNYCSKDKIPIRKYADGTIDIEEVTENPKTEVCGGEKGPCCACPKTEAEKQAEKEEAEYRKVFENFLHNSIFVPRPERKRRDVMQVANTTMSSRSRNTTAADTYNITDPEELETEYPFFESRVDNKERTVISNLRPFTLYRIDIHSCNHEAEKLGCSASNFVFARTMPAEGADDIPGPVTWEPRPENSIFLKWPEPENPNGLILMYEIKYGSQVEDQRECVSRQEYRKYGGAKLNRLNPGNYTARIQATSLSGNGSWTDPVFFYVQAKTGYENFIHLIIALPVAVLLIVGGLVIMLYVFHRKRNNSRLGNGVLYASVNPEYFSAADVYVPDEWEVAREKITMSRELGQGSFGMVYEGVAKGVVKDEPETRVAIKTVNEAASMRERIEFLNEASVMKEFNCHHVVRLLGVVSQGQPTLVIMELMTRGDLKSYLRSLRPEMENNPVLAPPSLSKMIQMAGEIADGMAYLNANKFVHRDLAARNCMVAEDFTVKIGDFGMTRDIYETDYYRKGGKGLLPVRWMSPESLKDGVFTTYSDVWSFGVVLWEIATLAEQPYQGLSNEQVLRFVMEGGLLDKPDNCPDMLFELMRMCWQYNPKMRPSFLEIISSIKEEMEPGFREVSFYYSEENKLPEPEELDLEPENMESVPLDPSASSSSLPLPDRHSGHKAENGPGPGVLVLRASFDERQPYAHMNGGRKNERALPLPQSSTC

How the values were obtained:
[1] = molecular target: T1, Flag-tagged PTPN9 (UniProt P43378); test: co-IP; Flag-tagged PTPN9 (wild type or point mutants) and HA-tagged IGF1R overexpressed in HEK293T cells; anti-Flag immunoprecipitation and western blot; with IGF1 stimulation in Fig. 5G
T1 sequence: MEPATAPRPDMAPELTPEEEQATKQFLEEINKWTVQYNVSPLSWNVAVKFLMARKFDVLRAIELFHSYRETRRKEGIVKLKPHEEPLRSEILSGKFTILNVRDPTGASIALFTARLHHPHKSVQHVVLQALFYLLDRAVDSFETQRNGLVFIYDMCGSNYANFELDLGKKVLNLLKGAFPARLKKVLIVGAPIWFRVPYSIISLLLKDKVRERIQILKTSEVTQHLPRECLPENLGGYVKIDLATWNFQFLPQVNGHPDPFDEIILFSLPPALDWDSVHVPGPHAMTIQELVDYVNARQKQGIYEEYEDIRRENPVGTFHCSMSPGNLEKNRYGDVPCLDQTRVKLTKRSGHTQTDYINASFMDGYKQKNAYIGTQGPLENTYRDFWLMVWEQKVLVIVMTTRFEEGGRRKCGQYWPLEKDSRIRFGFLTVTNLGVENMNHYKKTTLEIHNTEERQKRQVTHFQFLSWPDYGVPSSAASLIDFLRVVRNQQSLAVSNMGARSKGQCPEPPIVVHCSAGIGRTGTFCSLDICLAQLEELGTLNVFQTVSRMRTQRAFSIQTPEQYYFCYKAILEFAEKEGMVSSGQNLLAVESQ

[2] = molecular target: T2, Protein tyrosine phosphatase, non-receptor type 9 (endogenous) (human (endogenous in QBC-939 and RBE)) (UniProt P43378); test: co-IP; reciprocal endogenous co-immunoprecipitation in QBC-939 and RBE cholangiocarcinoma cell lines
T2 sequence: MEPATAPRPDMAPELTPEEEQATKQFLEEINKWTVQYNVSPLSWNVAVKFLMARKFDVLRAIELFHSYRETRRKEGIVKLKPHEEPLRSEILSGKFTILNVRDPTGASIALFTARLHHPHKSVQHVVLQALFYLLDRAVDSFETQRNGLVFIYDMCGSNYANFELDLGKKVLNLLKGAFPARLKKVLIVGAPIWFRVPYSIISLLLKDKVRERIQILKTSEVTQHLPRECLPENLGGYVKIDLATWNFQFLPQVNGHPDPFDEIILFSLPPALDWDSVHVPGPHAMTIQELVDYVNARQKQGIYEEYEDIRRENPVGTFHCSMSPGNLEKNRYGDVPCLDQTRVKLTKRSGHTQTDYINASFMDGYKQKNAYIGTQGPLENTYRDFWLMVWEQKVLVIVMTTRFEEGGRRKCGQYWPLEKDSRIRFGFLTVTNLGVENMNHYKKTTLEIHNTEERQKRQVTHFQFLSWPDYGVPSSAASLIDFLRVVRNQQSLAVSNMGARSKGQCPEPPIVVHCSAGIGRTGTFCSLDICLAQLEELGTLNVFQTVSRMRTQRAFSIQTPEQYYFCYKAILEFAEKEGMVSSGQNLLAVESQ

[3] = molecular target: T3, His-PTPN9-C515S/D470A (UniProt P43378); test: crystal structure; His-PTPN9-C515S/D470A (15 mg/ml) mixed with peptide at molar ratio 1:3 in 20 mM HEPES pH 7.2, 350 mM NaCl, 1 mM DTT; crystals at 4 °C; P1 space group; 2.0 Å; both purified
T3 sequence: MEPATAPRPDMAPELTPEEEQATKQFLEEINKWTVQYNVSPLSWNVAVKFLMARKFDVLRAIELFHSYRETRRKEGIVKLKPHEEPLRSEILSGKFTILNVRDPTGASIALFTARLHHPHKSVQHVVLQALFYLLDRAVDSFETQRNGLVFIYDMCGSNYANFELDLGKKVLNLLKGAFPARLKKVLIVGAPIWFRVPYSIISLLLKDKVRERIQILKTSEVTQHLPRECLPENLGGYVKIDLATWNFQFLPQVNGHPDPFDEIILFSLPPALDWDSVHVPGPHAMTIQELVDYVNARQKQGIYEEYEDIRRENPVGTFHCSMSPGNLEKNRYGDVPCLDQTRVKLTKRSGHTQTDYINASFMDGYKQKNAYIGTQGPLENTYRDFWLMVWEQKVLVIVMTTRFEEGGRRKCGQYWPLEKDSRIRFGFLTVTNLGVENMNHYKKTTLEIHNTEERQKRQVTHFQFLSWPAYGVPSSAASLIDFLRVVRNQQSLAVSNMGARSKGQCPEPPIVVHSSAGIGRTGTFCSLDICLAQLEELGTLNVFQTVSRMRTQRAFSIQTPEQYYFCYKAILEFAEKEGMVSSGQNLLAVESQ

binding [1]: binds
Molecule: HA-tagged IGF1R (from UniProt P08069 31-1367) (receptor)

binding [2]: binds
Molecule: Insulin-like growth factor 1 receptor (endogenous) (from UniProt P08069 31-1367)

binding [3]: binds
B1: p-IGF1R^Y1165/1166 peptide (peptide)
peptide: IYETDYYRKGGK
modifications: phosphotyrosine at Y1165 and Y1166 (IYETDpYpYRKGGK)
